Laboratory results as given in patent US5945326.
For at least one entry, the source does not settle the construct or the ends of the probe.

Assays:
[1] = system: SpeI restriction endonuclease (native, ~20 kDa) (Sphaerotilus species ATCC 13923); assay: enzyme reaction in vitro; conditions: plasmids with inserted linker identified by SpeI digestion; SpeI preparation source not stated; purified native protein
[2] = system: SpeI modification methylase (Sphaerotilus species ATCC 13923); assay: activity in cells; conditions: methylase selection; pSpeIM1 clone in pSspIHincII/SpeI vector fully protected from SpeI digestion; protein in cells; protein details: expressed from pSYX20SpeIM9 in E. coli ER2427; only the site is given

CCAACTAGTTGG (double strand) [SpeI linker (inserted in pUC19, pSspIHincII/SpeI)]
activity on this sequence [1]: active
activity on this sequence [2]: active
